Assay results as given in paper PMC9891081 (Cell, 2022).

Sequences of proteins named here, by UniProt entry; tags and fusion partners are left off.
UniProt Q13936, whole entry: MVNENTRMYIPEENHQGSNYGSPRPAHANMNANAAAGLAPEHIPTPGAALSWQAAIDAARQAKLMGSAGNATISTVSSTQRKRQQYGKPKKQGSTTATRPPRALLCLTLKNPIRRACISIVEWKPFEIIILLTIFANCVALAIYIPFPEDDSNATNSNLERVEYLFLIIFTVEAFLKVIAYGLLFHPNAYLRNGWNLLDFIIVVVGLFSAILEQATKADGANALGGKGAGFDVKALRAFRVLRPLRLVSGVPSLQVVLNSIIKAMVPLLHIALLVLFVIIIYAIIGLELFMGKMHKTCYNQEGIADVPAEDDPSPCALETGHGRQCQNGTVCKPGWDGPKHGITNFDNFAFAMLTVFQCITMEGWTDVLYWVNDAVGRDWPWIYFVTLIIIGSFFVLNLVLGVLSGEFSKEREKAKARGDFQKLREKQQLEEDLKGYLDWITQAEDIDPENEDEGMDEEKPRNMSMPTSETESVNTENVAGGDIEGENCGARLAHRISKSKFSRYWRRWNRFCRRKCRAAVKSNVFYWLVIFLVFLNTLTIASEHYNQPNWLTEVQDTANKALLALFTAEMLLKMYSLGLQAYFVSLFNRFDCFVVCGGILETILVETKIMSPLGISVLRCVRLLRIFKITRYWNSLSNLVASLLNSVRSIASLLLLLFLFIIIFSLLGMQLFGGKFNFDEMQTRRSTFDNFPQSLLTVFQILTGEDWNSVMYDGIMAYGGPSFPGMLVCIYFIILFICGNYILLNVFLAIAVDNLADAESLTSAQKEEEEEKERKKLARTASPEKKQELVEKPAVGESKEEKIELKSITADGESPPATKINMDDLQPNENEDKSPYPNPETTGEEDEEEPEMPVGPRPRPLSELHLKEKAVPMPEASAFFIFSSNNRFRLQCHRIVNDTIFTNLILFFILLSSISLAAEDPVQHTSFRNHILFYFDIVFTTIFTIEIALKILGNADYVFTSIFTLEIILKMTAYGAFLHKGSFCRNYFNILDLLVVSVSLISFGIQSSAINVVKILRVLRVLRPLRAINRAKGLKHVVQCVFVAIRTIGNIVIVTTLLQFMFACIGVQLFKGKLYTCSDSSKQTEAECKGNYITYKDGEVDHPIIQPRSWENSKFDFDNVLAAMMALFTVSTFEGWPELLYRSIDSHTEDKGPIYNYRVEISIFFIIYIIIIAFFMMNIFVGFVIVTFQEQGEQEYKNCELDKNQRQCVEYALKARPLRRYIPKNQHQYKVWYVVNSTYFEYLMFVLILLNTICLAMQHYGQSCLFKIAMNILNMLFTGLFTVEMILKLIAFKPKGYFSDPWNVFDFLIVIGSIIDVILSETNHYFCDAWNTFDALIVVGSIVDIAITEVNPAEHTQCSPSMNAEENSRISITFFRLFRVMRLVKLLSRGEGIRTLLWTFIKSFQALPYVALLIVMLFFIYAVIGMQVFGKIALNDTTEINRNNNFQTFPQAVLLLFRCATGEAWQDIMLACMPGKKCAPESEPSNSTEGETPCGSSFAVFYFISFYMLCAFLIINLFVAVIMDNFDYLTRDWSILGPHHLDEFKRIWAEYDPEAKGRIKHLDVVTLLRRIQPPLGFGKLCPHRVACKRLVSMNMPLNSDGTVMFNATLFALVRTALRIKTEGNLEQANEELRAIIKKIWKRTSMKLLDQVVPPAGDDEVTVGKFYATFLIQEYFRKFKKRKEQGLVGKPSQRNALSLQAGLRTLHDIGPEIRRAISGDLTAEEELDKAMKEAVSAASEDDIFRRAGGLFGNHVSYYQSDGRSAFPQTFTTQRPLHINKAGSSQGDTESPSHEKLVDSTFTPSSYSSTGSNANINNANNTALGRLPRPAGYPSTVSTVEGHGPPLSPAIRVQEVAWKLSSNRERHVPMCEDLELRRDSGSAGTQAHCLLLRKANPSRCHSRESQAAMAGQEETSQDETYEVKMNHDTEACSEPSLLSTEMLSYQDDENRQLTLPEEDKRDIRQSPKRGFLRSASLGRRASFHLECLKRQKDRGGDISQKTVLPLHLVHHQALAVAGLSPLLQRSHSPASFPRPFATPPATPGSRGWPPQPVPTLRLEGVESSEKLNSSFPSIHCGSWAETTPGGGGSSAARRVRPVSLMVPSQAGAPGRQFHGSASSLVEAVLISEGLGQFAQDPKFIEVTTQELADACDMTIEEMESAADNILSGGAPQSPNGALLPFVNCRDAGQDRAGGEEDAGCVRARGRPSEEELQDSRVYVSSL

Molecular target: human Cav1.2 (Homo sapiens, UniProt Q13936)

Question: How did the IC50 turn out when `COC(=O)C1=C(C)NC(C)=C(C(=O)OC)C1c1ccccc1[N+](=O)[O-]` [nifedipine] was run?
Answer: The IC50 values of nifedipine and verapamil remained similar with or without MNI-1.
